These are yes or no findings as the source states them, for the method shown. Some binding calls cover weakened binding; strength is not graded here.
Key:
[1] = target: ERK-2 (extracellular signal-regulated kinase 2) (UniProt P28482); test: BLI, immobilised ERK-2, eNOS analyte
[2] = target: ERK-2 (extracellular signal-regulated kinase 2) (UniProt P28482); test: optical biosensing (BLI), summary statement
[3] = target: ERK-2 (extracellular signal-regulated kinase 2) (UniProt P28482); test: BLI, biotinylated ERK-2 on streptavidin sensors, 200 nM eNOS analyte
[4] = target: ERK-2 (extracellular signal-regulated kinase 2) (UniProt P28482); test: BLI

The chains behind the UniProt entries cited, without tags or fusion partners.
UniProt P28482: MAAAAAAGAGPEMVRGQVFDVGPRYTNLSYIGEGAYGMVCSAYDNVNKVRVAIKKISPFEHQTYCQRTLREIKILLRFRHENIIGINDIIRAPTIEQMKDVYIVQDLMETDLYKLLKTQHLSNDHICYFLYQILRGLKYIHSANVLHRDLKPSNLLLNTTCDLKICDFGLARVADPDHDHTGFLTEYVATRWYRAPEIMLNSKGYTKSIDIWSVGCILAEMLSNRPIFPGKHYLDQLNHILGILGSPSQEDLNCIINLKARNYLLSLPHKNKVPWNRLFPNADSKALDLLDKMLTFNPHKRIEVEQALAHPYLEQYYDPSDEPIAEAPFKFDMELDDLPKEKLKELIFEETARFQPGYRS
UniProt P29473: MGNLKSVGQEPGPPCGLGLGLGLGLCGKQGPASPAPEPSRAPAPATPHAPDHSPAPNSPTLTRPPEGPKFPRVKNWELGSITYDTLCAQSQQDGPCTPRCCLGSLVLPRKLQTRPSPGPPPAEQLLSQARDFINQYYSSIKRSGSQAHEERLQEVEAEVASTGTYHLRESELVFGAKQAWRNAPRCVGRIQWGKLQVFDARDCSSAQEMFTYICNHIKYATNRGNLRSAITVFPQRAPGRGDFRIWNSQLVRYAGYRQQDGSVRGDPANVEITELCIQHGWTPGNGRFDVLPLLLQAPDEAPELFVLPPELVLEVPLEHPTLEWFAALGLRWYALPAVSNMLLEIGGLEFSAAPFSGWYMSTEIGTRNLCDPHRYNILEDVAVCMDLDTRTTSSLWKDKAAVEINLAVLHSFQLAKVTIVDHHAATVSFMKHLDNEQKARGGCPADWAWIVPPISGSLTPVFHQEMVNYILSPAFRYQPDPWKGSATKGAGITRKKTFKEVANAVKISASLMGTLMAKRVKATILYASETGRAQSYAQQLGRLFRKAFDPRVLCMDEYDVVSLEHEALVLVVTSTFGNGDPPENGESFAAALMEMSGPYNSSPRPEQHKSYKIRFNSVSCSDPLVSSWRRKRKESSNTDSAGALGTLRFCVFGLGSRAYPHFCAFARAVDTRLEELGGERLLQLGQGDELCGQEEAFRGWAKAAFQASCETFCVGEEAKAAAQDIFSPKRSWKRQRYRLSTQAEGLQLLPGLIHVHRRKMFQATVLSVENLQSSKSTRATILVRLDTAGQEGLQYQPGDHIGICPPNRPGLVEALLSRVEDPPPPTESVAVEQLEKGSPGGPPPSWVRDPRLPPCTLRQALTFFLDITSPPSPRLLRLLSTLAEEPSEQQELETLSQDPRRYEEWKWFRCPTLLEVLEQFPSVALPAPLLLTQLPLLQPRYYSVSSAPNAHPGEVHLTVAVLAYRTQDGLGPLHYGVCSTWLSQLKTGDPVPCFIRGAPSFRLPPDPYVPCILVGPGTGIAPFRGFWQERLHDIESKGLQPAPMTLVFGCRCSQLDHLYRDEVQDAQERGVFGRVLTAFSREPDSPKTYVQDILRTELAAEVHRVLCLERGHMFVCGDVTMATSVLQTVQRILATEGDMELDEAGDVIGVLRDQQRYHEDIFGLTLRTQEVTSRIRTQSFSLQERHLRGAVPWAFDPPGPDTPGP

Measured: binding

endothelial nitric oxide synthase (eNOS), purified, unphosphorylated (from UniProt P29473 1-1205) (enzyme)
binds: all assays above

From patent US20150232576A1
